In US20200131274A1 one finds binding data, which are given here for three molecules.

Where a chain is given by its changes, count along the chain named. Results are given in words; binding and its absence hold for the method and conditions named. Some results given as binding are weak or reduced against the parent protein; the word gives no strength.

The target in test [1] is cynomolgus PSMA, full-length, on CHO cells (cynomolgus). Description: FMAT direct binding on CHO cells expressing cynomolgus PSMA, purified VH kept 0-8 days at 40 °C before the assay, FL2 median mean fluorescence.
The target is the same in test [2]. Description: FMAT Mirrorball direct cell binding, purified His-tagged VH titrated on CHO cells expressing cynomolgus PSMA, FL2 median binding signal [panel cynoPSMA-CHO binding].

B1: single VH domain antibody 2.1 (VHH)
VHH: EVQLVESGGGVVQPGRSLRLSCAASGFSFSGYGMHWVRQAPGKGLEWVAYISYDGSNKYYADSVKGRFTISRDNSKNTLYLQMNSLRAEDTAVYYCAKDPAWGLRLGESSSYDFDIWGQGTMVTVSS
For B1, the binding result in test [1] and in test [2] was “binds” throughout.

B2: 2.10 (VHH)
VHH: B1 VHH with S28T, K58R, N77K, Y80S
On to B2, for which, in test [2], the binding entry is listed as “binds”.

B3: single VH domain antibody 3.1 (VHH)
VHH: EVQLVESGGGVVQPGRSLRLSCAASGFPLISYGMHWVRQAPGKGLEWVAFMTYDGSNRYYADSVKGRFTISRDNSKNTLYLQMNSLRDEDTALYYCARDRIVGGRVPDAFDIWGQGTMVTVSS
For B3, the binding entry in test [2] is reported as “binds”.
